In the supplement of paper PMC10727501:
Some of the results follow. This data set is noisy: repeats of one test often differ as much as different tests do.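 Free-swimming zebrafish larvae were assessed for O-bend response probability to dark flashes (naive: first five; training: remaining flashes across four 60-flash blocks; test: later 60-flash block) and for OMR turning toward alternating leftward/rightward LED motion. Six treated larvae were compared against sixty 0.1% DMSO controls; hits required |SSMD|≥2.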

What follows are compounds tested on Danio rerio larvae (5 dpf, TLF) (assay: Prob-Naive (SSMD vs DMSO vehicle); higher = higher than vehicle (e.g. higher dark-flash O-bend response probability, or better optomotor performance)). Conditions: 10 µM; pre-incubation: 30-90 min.
`COc1ccc2cc1Oc1ccc(cc1)C[C@H]1c3cc(c(OC)cc3CCN1C)Oc1c(OC)c(OC)cc3c1[C@@H](C2)N(C)CC3` [Tetrandrine] gave a Prob-Naive of 0.0551. Compound `CCCCCCCN(CC)CCCC(O)c1ccc(NS(C)(=O)=O)cc1.CCCCCCCN(CC)CCCC(O)c1ccc(NS(C)(=O)=O)cc1.O=C(O)/C=C/C(=O)O` (stereo not drawn) [Ibutilide Fumarate] has a Prob-Naive of 0.42. With `CCCc1cc(C(N)=S)ccn1` [Protionamide] the Prob-Naive was -0.048. Work on `Cc1cc(Nc2ncnc3ccc(-c4ccc(CNCCS(C)(=O)=O)o4)cc23)ccc1Oc1ccn2ncnc2c1` [HER2-Inhibitor-1] yielded a Prob-Naive of -0.17. `C1(C[C@@H]2C[C@@H](C[C@@H]1N2C)OC(C3=CC=CC=C3)C4=CC=CC=C4).CS(=O)(=O)O` (stereo partly drawn) [Benztropine mesylate] gave a Prob-Naive of 5.13e-16. With `CC(=O)Oc1cc(C(F)(F)F)ccc1C(=O)O` [Triflusal] the Prob-Naive was -0.187. Work on `Nc1nc(NCCNc2ncc(-n3ccnc3)c(-c3ccc(Cl)cc3Cl)n2)ccc1[N+](=O)[O-]` yielded a Prob-Naive of -0.13. `COc1cc(Nc2nc3ccccc3nc2NS(=O)(=O)c2ccc(NC(=O)c3ccc(C)c(OC)c3)cc2)cc(OC)c1` was tested, and the Prob-Naive was -0.0535. `COc1ccc(S(=O)(=O)Nc2cccnc2Nc2ccc(O)cc2)cc1` showed a Prob-Naive of 0.515. `CC[C@]1(O)C[C@@H]2C[N@](CCc3c([nH]c4ccccc34)[C@@](C(=O)OC)(c3cc4c(cc3OC)N(C)[C@@H]3C45CCN4CC=C[C@](CC)([C@H]45)[C@H](OC(C)=O)[C@]3(O)C(=O)OC)C2)C1` (stereo partly drawn) [Vinblastine] showed a Prob-Naive of 0.121. In the case of `Nc1nc(=O)c2ncn(CCC(CO)CO)c2[nH]1` [Penciclovir], the Prob-Naive is reported as 0.573. Work on `O=C1c2c(O)cc(O)cc2O[C@H](c2ccc(O)c(O)c2)[C@H]1O` [Taxifolin (Dihydroquercetin)] yielded a Prob-Naive of -0.311. With `C#C[C@@]1(O)CC[C@H]2[C@@H]3CCc4cc(OC)ccc4[C@@H]3CC[C@@]21C` [Mestranol] the Prob-Naive was -0.813. `Cc1[nH]c(/C=C2\C(=O)Nc3ccc(S(=O)(=O)Cc4c(Cl)cccc4Cl)cc32)c(C)c1C(=O)N1CCC[C@@H]1CN1CCCC1` showed a Prob-Naive of 0.437. In the case of `Cl.O=C(OCC(O)CO)c1ccccc1Nc1ccnc2cc(Cl)ccc12` (stereo not drawn) [Glafenine HCl], the Prob-Naive is reported as -0.333. `Cl.O=C1NCC2(CCN(CCc3ccccc3)CC2)O1` [Fenspiride HCl] was tested, and the Prob-Naive was 0.00519. In the case of `O=C(N/N=C/c1ccc([N+](=O)[O-])o1)c1ccc(O)cc1` [Nifuroxazide], the Prob-Naive is reported as 0.263. With `CN(c1ncccc1CNc1nc(Nc2ccc3c(c2)CC(=O)N3)ncc1C(F)(F)F)S(C)(=O)=O` the Prob-Naive was 0.456. Work on `C/C(O)=C(\C#N)C(=O)Nc1ccc(C(F)(F)F)cc1` [Teriflunomide] yielded a Prob-Naive of -0.269. `N#CC(=Cc1ccc(-c2cc(Cl)ccc2Cl)o1)C(=O)Nc1cccc2ncccc12` gave a Prob-Naive of -0.0813. Work on `Cc1nc(N)sc1-c1ccnc(Nc2ccc(N3CCOCC3)cc2)n1` yielded a Prob-Naive of 0.113. In the case of `Br.Br.NCCCCCNCC12CC3CC(CC(C3)C1)C2` [IEM 1754 dihydrobroMide], the Prob-Naive is reported as -0.232. With `COC(=O)N[C@H](C(=O)N[C@@H](Cc1ccccc1)[C@@H](O)CN(Cc1ccc(-c2ccccn2)cc1)NC(=O)[C@@H](NC(=O)OC)C(C)(C)C)C(C)(C)C.O=S(=O)(O)O` [Atazanavir Sulfate] the Prob-Naive was -0.157. In the case of `C[C@]12C=CC(=O)C=C1CC[C@H]1[C@@H]3C[C@@H](O)[C@@](O)(C(=O)CO)[C@@]3(C)C[C@@H](O)[C@]12F` [Triamcinolone], the Prob-Naive is reported as 0.285. `CCOc1nc2cccc(C(=O)OCc3oc(=O)oc3C)c2n1Cc1ccc(-c2ccccc2-c2nc(=O)o[nH]2)cc1` [Azilsartan Medoxomil] showed a Prob-Naive of -0.568. Compound `CC(C)n1c(/C=C/[C@@H](O)C[C@@H](O)CC(=O)[O-])c(-c2ccc(F)cc2)c2ccccc21.[Na+]` [Fluvastatin Sodium] has a Prob-Naive of 0.214. `C[N+](C)(C)CCO.[Cl-]` [Choline Chloride] was tested, and the Prob-Naive was -0.571. `C[C@@H]1COc2c(N3CCN(C)CC3)c(F)cc3c(=O)c(C(=O)O)cn1c23` [Levofloxacin] was tested, and the Prob-Naive was 0.478.
